Reference: patent US20210340217A1, “NOVEL PEPTIDES AND COMBINATION OF PEPTIDES FOR USE IN IMMUNOTHERAPY AGAINST OVARIAN CANCER AND OTHER CANCERS” (Immatics Biotechnologies GmbH, priority 2017, published 2021)
For some of these results: Expression grades refer to the transcript from which the peptide derives; gene names, where given, were looked up from the sequence.

Columns and labels:
[1] = tested on: ovarian cancer tissue samples; assay: Identification of tumor associated peptides presented on the cell surface (HLA immunoprecipitation, LC-MS); presentation across tumor types; design: species or system human; settings: tumor types on which the peptide was found presented (HLA immunoprecipitation, LC-MS); abbreviations in table footnote
[2] = tested on: source genes in OC tumors compared to a panel of normal tissues; assay: Expression profiling of genes encoding the peptides (RNAseq), expression scores; design: species or system human; key: very highly over-expressed in OC tumors compared to a panel of normal tissues (+++); highly over-expressed in OC tumors compared to a panel of normal tissues (++); over-expressed in OC tumors compared to a panel of normal tissues (+); settings: expression score of source gene

Substance	Peptide Presentation on tumor types [1]	Gene Expression [2]
395: peptide found in MSLN (gene looked up) (VLLPRLVSC; listed as Homo sapiens) [compound 395]	NSCLC	++
197: peptide found in MSLN (gene looked up) (AEVLLPRLV; listed as Homo sapiens) [compound 197]	NSCLC, PACA, UEC	++
118: peptide found in CD70 (gene looked up) (SPASRSISL; listed as Homo sapiens) [compound 118]	NHL, OSCAR, RCC	++
433: peptide found in STAG2 (gene looked up) (SDSQVRAF; listed as Homo sapiens) [compound 433]	GBM, GC, HCC, HNSCC, NSCLC, OSCAR, RCC, SCLC, UEC	+++
416: peptide found in MELK (gene looked up) (SEEETRVVF; listed as Homo sapiens) [compound 416]	AML, CRC, HNSCC, NSCLC, UEC	++
92: peptide found in EYA2 (gene looked up) (SVFPIENIY; listed as Homo sapiens) [compound 92]	UEC	++
120: peptide found in ETV1 (gene looked up) (RPAMNYDKL; listed as Homo sapiens) [compound 120]	CRC	++
307: peptide found in ESR1 (gene looked up) (LPYGPGSEAAAF; listed as Homo sapiens) [compound 307]	BRCA, UEC	+++
411: peptide found in IDO1 (gene looked up) (LELPPILVY; listed as Homo sapiens) [compound 411]	BRCA, CRC, GBC, GBM, GC, NHL, NSCLC, OSCAR, PRCA, SCLC, UBC, UEC	+
77: peptide found in CYP2W1 (gene looked up) (RYGPVFTV; listed as Homo sapiens) [compound 77]	CCC, GC	+++
335: peptide found in MUC16 (gene looked up) (HPDPVGPGL; listed as Homo sapiens) [compound 335]	NSCLC, UEC	+++
288: peptide found in LILRB4 (gene looked up) (SPVTSVHGGTY; listed as Homo sapiens) [compound 288]	NHL	+
315: peptide found in KLK8 (gene looked up) (SPRENFPDTL; listed as Homo sapiens) [compound 315]	HNSCC	+++
16: peptide found in MYO3B (gene looked up) (IYSPQFSRL; listed as Homo sapiens) [compound 16]	BRCA, NHL, NSCLC, OSCAR, UBC, UEC	+++
320: peptide found in LILRB4 (gene looked up) (FPMSPVTSV; listed as Homo sapiens) [compound 320]	AML, BRCA, CCC, CRC, GBC, GBM, GC, HCC, HNSCC, MEL, NHL, NSCLC, OSCAR, PACA, PRCA, RCC, SCLC, UBC, UEC	+
63: peptide found in EYA2 (gene looked up) (MMEEMIFNL; listed as Homo sapiens) [compound 63]	UBC	++
62: peptide found in CRABP2 (gene looked up) (KVLGVNVML; listed as Homo sapiens) [compound 62]	BRCA, HNSCC, MEL, NSCLC, SCLC	++
